In the supplement of paper PMC5949888 one finds growth estimate data, which are given here for 116 substances.

Most values lie at the floor of the assay. Slopes are relative: functional sequences can read slightly below zero. Where only a bound is given, the exact number is not on record here.

In the data set the test system is Saccharomyces cerevisiae PS128 hsf1 delta, HSF1(1-493) fusion. The data set can be described thus: growth estimate (transactivation domain function in HSF1 fusion, heat-shock survival) (a.u. (slope of normalised read count over time)); higher = stronger growth at 37°C, i.e. more transactivation activity. The note with it: library: random library.
Turning to FESDYSEYCESLCSKPAITY, the growth estimate was less than -0.25.

Take GDVSTRGNGKVERGRDPPGI: the growth estimate is less than -0.25.

For the substance AETTFLTRMAACRMSFPIVW, the growth estimate was -0.25.

Turning to TVLRVSHHLGCTAL, the growth estimate was less than -0.25.

Consider KRGTRG, for which the growth estimate is less than -0.25.

Consider QLSYAGVVTFERMRVAFYHM, for which the growth estimate is less than -0.25.

With SVSGSRLSVTFGFRQRSVWL, the growth estimate is less than -0.25.

As to AVV, the growth estimate was less than -0.25.

As to KDFLGMGPRFARSRVVASVP, the growth estimate is less than -0.25.

On to GGMDENSGDCTATHKVPASK, for which the growth estimate was less than -0.25.

Turning to PTPGLLVT, the growth estimate is less than -0.25.

GHHTPCGGLRQS: the growth estimate is less than -0.25.

Turning to RRDGVRGLGLVVMASLG, the growth estimate was less than -0.25.

In the case of LCEWGSL, the growth estimate is 0.532.

Regarding PSAGLYLRPVIA, the growth estimate is less than -0.25.

Turning to PKSPAVSVQSVDLPLTMDWL, the growth estimate is less than -0.25.

In the case of VYYTGWGHVRSPIR, the growth estimate is less than -0.25.

MPMGVS: the growth estimate is less than -0.25.

On to IEVQTIVRTRHSFTTPVPT, for which the growth estimate is less than -0.25.

On to GIIQGSLHNS, for which the growth estimate was less than -0.25.

With GQAAHEFAPSRLLPSSSGRQ, the growth estimate was less than -0.25.

Consider LSVRLSFR, for which the growth estimate is less than -0.25.

Take FPRSRCI: the growth estimate is less than -0.25.

Take GPIECHPRQKA: the growth estimate was less than -0.25.

As to SPWWAD, the growth estimate is less than -0.25.

On to IGSGSRDRKLCLCG, for which the growth estimate is less than -0.25.

As for RMAKRARRL, the growth estimate was less than -0.25.

For LVDDRSTNAYN, the growth estimate was less than -0.25.

Regarding QRSSNWNLYPLILLLCPGPV, the growth estimate is less than -0.25.

Regarding HRLTCIRRGSSVKSVRRQGR, the growth estimate was less than -0.25.

For the substance LTDHGGGRIRAVGTAVCHRL, the growth estimate is less than -0.25.

Take ASRSKNFVHCTGIFVQTAR: the growth estimate was less than -0.25.

Regarding SWVQILTGVLRVWLLPDKKS, the growth estimate is less than -0.25.

In the case of TSRQAPRFAPH, the growth estimate was less than -0.25.

Consider SSCCPRWIRSIQ, for which the growth estimate was less than -0.25.

With SRDTVENSLALHR, the growth estimate was less than -0.25.

For IDMCGLSA, the growth estimate was -0.246.

On to AFELVL, for which the growth estimate is less than -0.25.

For the substance GIH, the growth estimate was -0.224.

As for GGIS, the growth estimate is less than -0.25.

For the substance SLMDYLSDHVHWSASRPVVP, the growth estimate is less than -0.25.

For GSM, the growth estimate was less than -0.25.

For the substance LHTTGTAGRQSEQARTAWTS, the growth estimate is less than -0.25.

In the case of IYTRPVSSWYTSAETLQTGA, the growth estimate is less than -0.25.

For ASLGRFWATLMDLMPNRWHI, the growth estimate is less than -0.25.

As to YQRR, the growth estimate was less than -0.25.

As for VVLSVSILWER, the growth estimate was less than -0.25.

Regarding RSLTTTWYVLG, the growth estimate was less than -0.25.

Take RGRFAAA: the growth estimate was less than -0.25.

Consider GPPNTRH, for which the growth estimate is less than -0.25.

In the case of TTINTSTVTCE, the growth estimate was less than -0.25.

For WTWPSAAL, the growth estimate is less than -0.25.

ESRIVVQAVSRLHGTINLIQ: the growth estimate is less than -0.25.

Take VRTHGPI: the growth estimate is less than -0.25.

Turning to NSRLRPGRT, the growth estimate is -0.246.

As to GDIEPLGCRGAGLPVTSLGM, the growth estimate is less than -0.25.

As to HAYREMGRHRSRPSADTRPI, the growth estimate is less than -0.25.

In the case of MTPESVECPIVSPTDIAFFA, the growth estimate was less than -0.25.

In the case of CALWRV, the growth estimate was less than -0.25.

Take MSSHNTCPIGVYGSLLLLVT: the growth estimate is less than -0.25.

Turning to KASISRMACGASLGISEECG, the growth estimate was less than -0.25.

In the case of IFRMRRYISNLLASVRVSQF, the growth estimate was less than -0.25.

In the case of WHMIQDGLLVK, the growth estimate is less than -0.25.

For GPVSRG, the growth estimate is less than -0.25.

In the case of GRGKTLRSVAG, the growth estimate is less than -0.25.

Turning to QMFKRHHMCILVIYDHPATI, the growth estimate was less than -0.25.

QVI: the growth estimate is less than -0.25.

With WHAG, the growth estimate was less than -0.25.

With ALPVPRAMPHHFFVSCVV, the growth estimate was less than -0.25.

GPGIRTSPISVARA: the growth estimate is less than -0.25.

As to DCAILCGINVFEA, the growth estimate was less than -0.25.

As for FPSPHTSMLLYPLRRHCGEQ, the growth estimate was less than -0.25.

Turning to FVSRFMLCAVRVFVVVQTG, the growth estimate was less than -0.25.

As for YGWINRGASRQVATARGIPR, the growth estimate is less than -0.25.

For the substance AYRLRDRQCSGVNACGSADW, the growth estimate is less than -0.25.

Consider PRPGPLTQTRVFGRRDNGVE, for which the growth estimate is less than -0.25.

On to GKQICVGRAYRSGTCPNPQG, for which the growth estimate is less than -0.25.

Consider REKLDRGLVADTKARLL, for which the growth estimate is less than -0.25.

CVLAKPTRAGRLNKN: the growth estimate was less than -0.25.

Turning to VSTKGSYVMHVSHE, the growth estimate is less than -0.25.

Turning to PVVSSRRTQSLHHSDGCCED, the growth estimate was less than -0.25.

On to ACDKRLSR, for which the growth estimate was less than -0.25.

As for TFLHASRLYGW, the growth estimate was less than -0.25.

For FTGFTRDALDIIHLPIATHY, the growth estimate was -0.245.

In the case of REGYARNCSETPRR, the growth estimate is less than -0.25.

Turning to CLELLREVVRKLSIPWDFGV, the growth estimate was less than -0.25.

As to WRAALGGHCNSYG, the growth estimate is less than -0.25.

TTKSR: the growth estimate was less than -0.25.

Turning to LGR, the growth estimate was less than -0.25.

Regarding SGVENKIGQLWWPAALQTGW, the growth estimate was less than -0.253.

As for LNKSPRESGRHINANTTSQR, the growth estimate is less than -0.25.

Regarding MVQGSKGYSLLYLAIVSGRG, the growth estimate is less than -0.25.

Consider LGAGEFLHCVRISILYLLHA, for which the growth estimate is less than -0.25.

Consider FWRLLEL, for which the growth estimate is less than -0.25.

With CMRLGRVVSPS, the growth estimate was less than -0.25.

For RYIRARAFALFNWCETL, the growth estimate was less than -0.25.

YYSVRIDRRAKRRISAGRYE: the growth estimate was less than -0.25.

As to RDRSHYGAETTSRVTSLDAV, the growth estimate is less than -0.25.

Turning to RATRSQRSPDTALVTFP, the growth estimate was less than -0.25.

Regarding KCQDVLD, the growth estimate is less than -0.25.

Consider FRASTYLRVYRGSFS, for which the growth estimate is less than -0.25.

Take DVQLLGSGYCRVHIFNTHPT: the growth estimate is less than -0.25.

In the case of VVDI, the growth estimate was less than -0.25.

As to SRSITDGPVCSVN, the growth estimate is less than -0.25.

With GEWIGLMRSAGIYFR, the growth estimate is less than -0.25.

As to ERTRQGYDP, the growth estimate was less than -0.25.

As for ADVRVRSCGLGTAPRMVICK, the growth estimate is less than -0.25.

With ISGS, the growth estimate was less than -0.25.

In the case of LVAHSELGFVCGMFNGPATK, the growth estimate is less than -0.25.

For the substance FGDR, the growth estimate was less than -0.25.

For ITGWTDDRADLNGSGTVSNP, the growth estimate is less than -0.25.

NRLVVLTTTSRFSPKGRLHA: the growth estimate was less than -0.25.

ATQLSTVEHTN: the growth estimate is less than -0.25.

Turning to SGTEGAPLVVGGSVSGSQRD, the growth estimate is less than -0.25.

In the case of SDLTALDTVI, the growth estimate was -0.243.

In the case of RPSANRAIETSRETGCRPDE, the growth estimate was less than -0.25.
